Results from patent US12116424B2 (priority 2021, dated 2024).

assay: general procedure: Fmoc solid-phase peptide synthesis; Fmoc Dawson Dbz AM resin (thioester AIPs); pre-loaded L-valine 2-chlorotrityl resin (0.74 mmol/g) (amide AIPs); HATU, DIPEA; conditions: whole synthesis, 220 nm, scale of the general procedure 0.0147 mmol (thioester AIPs), 0.037 mmol (amide AIPs)

Substance	final HPLC purity [%]
A-(C-F-M-F-V)	>99
A-(C-F-M-F-dV)	98.1
A-(C-F-M-H-V)	97.8
A-D-S-S-M-S-K-A-(C-F-M-F-V)	96.5
A-(C-L-M-F-V)	98.3
S-K-A-(C-F-M-F-V)	92.3
S-S-M-S-K-A-(C-F-M-F-V)	97.9
A-(dC-F-M-F-V)	97.9
K-A-(dC-F-M-F-V)	97.3
K-K-(C-F-M-F-V)	>99
Ac-(C-F-M-F-V)	96.9
A-(C-F-M-Y-V)	98.6
A-(C-W-M-F-V)	98.8
A-(C-F-M-L-V)	96.4
A-(C-F-M-A-V)	99.0
T-(C-F-M-F-V)	98.6
S-M-S-K-A-(C-F-M-F-V)	93.2
A-(C-Y-M-F-V)	96.4
K-(dC-F-M-F-V)	97.3
A-(C-A-M-F-V)	99.0

Substance	final HPLC purity [%]
K-(C-F-M-F-V)	98.6
M-S-K-A-(C-F-M-F-V)	94.3
S-(C-V-G-L-S)	>99
A-(C-S-M-F-A)	>99
A-(C-F-M-F-A)	98.8
S-(C-F-L-I-F)	>99
A-(C-H-M-F-V)	95.4
V-A-D-S-S-M-S-K-A-(C-F-M-F-V)	98.2
K-V-A-D-S-S-M-S-K-A-(C-F-M-F-V)	96.4
A-(C-F-A-F-V)	>99
dA-(C-F-M-F-V)	97.5
A-(C-F-M-W-V)	>99
D-S-S-M-S-K-A-(C-F-M-F-V)	98.4
P-(C-F-M-F-V)	98.6
K-A-(C-F-M-F-V)	97.7
A-(C-S-M-F-V)	97.0
Ac-(C-V-G-F-V)	98.4
S-(C-V-L-H-L)	>99
V-(C-F-M-F-V)	96.5
